Results: article PMC2360413
No constants are given. Whether binding was seen depends on the method and setting. Binding seen in cells or lysates may run through a third protein. Some entries that bind do so weakly or less than the wild type.

Sequences of proteins named here, by UniProt entry; tags and fusion partners are left off. Residues count along the entry.
UniProt P38646, residues 47-679: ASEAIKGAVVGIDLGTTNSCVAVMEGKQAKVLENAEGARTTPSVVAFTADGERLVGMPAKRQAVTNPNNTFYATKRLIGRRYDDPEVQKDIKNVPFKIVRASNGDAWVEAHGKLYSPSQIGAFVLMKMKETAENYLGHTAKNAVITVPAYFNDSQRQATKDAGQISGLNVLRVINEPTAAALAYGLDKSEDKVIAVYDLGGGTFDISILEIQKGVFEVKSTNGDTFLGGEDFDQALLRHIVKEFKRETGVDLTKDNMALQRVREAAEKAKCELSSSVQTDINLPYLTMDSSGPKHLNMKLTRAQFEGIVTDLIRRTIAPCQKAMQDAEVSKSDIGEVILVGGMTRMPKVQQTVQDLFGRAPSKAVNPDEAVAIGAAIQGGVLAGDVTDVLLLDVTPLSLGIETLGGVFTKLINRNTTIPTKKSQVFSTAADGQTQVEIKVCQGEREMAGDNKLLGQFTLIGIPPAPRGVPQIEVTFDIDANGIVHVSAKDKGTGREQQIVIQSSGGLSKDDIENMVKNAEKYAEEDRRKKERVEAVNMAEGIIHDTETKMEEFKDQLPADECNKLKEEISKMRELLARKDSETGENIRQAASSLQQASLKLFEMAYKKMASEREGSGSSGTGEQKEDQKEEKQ
UniProt P21926: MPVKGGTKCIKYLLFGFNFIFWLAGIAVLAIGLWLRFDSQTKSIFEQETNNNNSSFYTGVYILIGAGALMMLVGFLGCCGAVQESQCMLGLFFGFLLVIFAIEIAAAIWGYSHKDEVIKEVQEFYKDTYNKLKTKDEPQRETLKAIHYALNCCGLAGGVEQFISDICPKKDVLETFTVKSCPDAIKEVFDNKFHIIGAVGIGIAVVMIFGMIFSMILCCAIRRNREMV

Assays:
[1] = target: HSPA9B protein, also known as mortalin (human (endogenous in PC-3 and PC-3M-LN4)) (UniProt P38646); test: co-IP; 1% Brij 97 lysate immunoprecipitated with mortalin mAb, blot with CD9 mAb
[2] = target: exogenous wild-type CD9 (pcDNA3.1/Myc-HisA-CD9 wild-type construct) (UniProt P21926); test: co-IP; 1% Brij 97 lysates of PC-3, PC-3M-LN4 and PC-3M-LN4CD9-40 cells immunoprecipitated with CD9 mAb (or mouse IgG), blot with mortalin mAb
[3] = target: Cluster-of-differentiation antigen 9 (CD9) (human (endogenous in PC-3 and PC-3M-LN4)) (UniProt P21926); test: as above

Question: With “Cluster-of-differentiation antigen 9 (CD9) (from UniProt P21926 1-228)” as the substance, how does the binding [1] read?
Answer: Its binding is “binds”.

Question: “HSPA9B protein, also known as mortalin (from UniProt P38646 47-679)” was tested. Which binding [2] did it give?
Answer: Its binding is “binds”.

Question: And the binding [3]?
Answer: The binding was “binds”.
